Source: PubChem BioAssay AID624291 (National Center for Advancing Translational Sciences (NCATS), 2012)
Among all 350,000 compounds or so, about 220 (0.063%) were called active. Calls come from the whole dose curve; as a rule, active = well fitted activation curve with a large enough effect; inconclusive = small, poorly fitted or top-dose-only effect; inactive = no such curve, though single readings can be large or run the other way. The inconclusive results got no clear call from the source. A potency beside an inconclusive call is a rough fit, not a confirmed value.

Assay: qHTS for Activators of Integrin-Mediated Alleviation for Muscular Dystrophy; note: nearly all actives have a fitted effect of over 60% in size
Settings: alpha7betagal myoblasts, beta-gal FDG fluorescence, 48 h; series mostly up to 38.3 µM
Text: Integrins are a diverse family of transmembrane cell surface receptors that mediate interactions between cells and the extracellular matrix. These heterodimeric proteins are composed of alpha and beta subunits and the a7b1 interacts with laminin in the extracellular matrix and actin of the cell cytoskeleton. Both chains contribute to ligand binding, but the alpha chain mediates the specificity of the interaction. The alpha7beta1 integrin is a major laminin receptor in skeletal, cardiac and vascular smooth muscle. Mutations in the alpha7 integrin gene are responsible for muscular dystrophy in both humans and mice. The alpha7beta1 integrin is also a major modifier of muscle disease progression in various muscle diseases including Duchenne muscular dystrophy, Fukuyama muscular dystrophy and merosin deficient congenital muscular dystrophy type 1A. […] Transcriptional regulation of the alpha7 integrin gene is poorly understood and probably involves multiple transcription factors. The goal of identifying small molecules that enhance alpha7 integrin expression is two-fold: firstly, such molecules would help us gain insight into the complex transcriptional control of alpha7 integrin. It is known that alpha7 integrin expression is tightly controlled during various stages of development, disease and in response to external stimuli. The second goal of the project is to translate the above finding into a therapeutic strategy for muscular dystrophy. […] Thus this project aims to discover small molecule probes that would not only help in gaining a better understanding of the complex regulatory mechanism of alpha7 integrin expression, but also lead to development of pharmacological agents to fight muscular dystrophy. NIH Chemical Genomics Center [NCGC] NIH Molecular Libraries Probe Centers Network [MLPCN] MLPCN Grant: NS058429 Assay Submitter (PI): Dean Burkin, University of Nevada School of Medicine
A total of 250 alpha7betagal+/- myoblasts at passage 13 were dispensed using a mulitdrop from Thermo into black low base tissue culture treated microclear aurora plates in 6 ul media containing DMEM without phenol, 5% FBS, 1x GluMax and 1x Penicillin/Streptomycin. The plates were incubated 16-24 hr at 37C, 5% CO2, 95% humidity covered with low evaporation stainless steel lids from Kalypsys. Compounds were then dispensed using a Kalypsys pintool to deliver 23 nl/well compounds in DMSO (diluted into 6 uL resulting in a 1:260 dilution of compound). The control compound used was the cdk2 inhibitor SU9516 from Tocirs (found in the initial LOPAC screen). The plates were incubated for 48 hours at 37C, 5% CO2, 95% humidity using the same stainless steel lids. […] The plates were again read on the Viewlux with exciation at 480 nm and emission at 540 nm for 25 seconds.
Potency is the fitted concentration of half-maximal effect.

SMILES	Potency
COc1cc(/C=C2\C(=N)N3N=C(S(C)(=O)=O)SC3=NC2=O)ccc1OCCOc1ccccc1C	inconclusive: 1.78 µM [activator, partial curve, poor fit]
Cc1cccc(S(=O)(=O)Nc2nc3ccccc3nc2Nc2cccc(C(=O)O)c2)c1	inconclusive: 11.2 µM [activator, single point]
O=C(COc1ccc(Cl)cc1)Nc1cc(NC(=O)COc2ccc(Cl)cc2)cc(C(=O)O)c1	inconclusive: 5.01 µM [activator, single point]
COc1cc(/C=C2\C(=N)N3N=C(S(C)(=O)=O)SC3=NC2=O)cc(OC)c1OCCOc1cccc(C)c1	inconclusive: 10 µM [activator, partial curve]
